Publication PMC11589570, “Critical assessment of LC3/GABARAP ligands used for degrader development and ligandability of LC3/GABARAP binding pockets” (Nature Communications, 2024)
Several values for one entry are separate records, joined by “and”; a condition that tells them apart may be missing. Equal entries are not always repeated. This continues a long series; more values of the same kind are listed elsewhere.

Test system: U2OS cells
Test: Cell growth assay (IncuCyte confluence over 72 h)
Format: cell-based
Design: key: % of well area covered by cells (confluence)
Details: listed as AN1
Procedure: Cell growth assay: Cell confluence (phase) from RPE1 (hTERT RPE-1, ATCC CLR_4000) or U2OS (ATCC, HTB-96) cell lines were monitored over time with the IncuCyte S3 (Sartiorius, Germany) in 384-well plates in 50 ul DMEM media, supplemented with 10% Fetal Bovine Serum (FBS) 1% penicillin/Streptomycin and incubated 24 h before treatment. Experiment was performed as described in Cano-Franco et al.. […] Cell confluence is represented as % of area covered by cells. Each data point represents the average ratio or confluence obtained from three individual wells of the plate.

O=C1Nc2ccc(Br)cc2C1=Cc1cc(O)c(O)c(Br)c1 [compound 1]
U2OS cell growth (5 uM, time 8 h): 47.9122 and 46.3183 and 49.7721
U2OS cell growth (5 uM, time 22 h): 63.5733 and 64.4251 and 76.2369
U2OS cell growth (5 uM, time 24 h): 62.8422 and 66.3932 and 68.9175
U2OS cell growth (5 uM, time 26 h): 66.7035 and 68.7534 and 74.9824
U2OS cell growth (5 uM, time 28 h): 70.4883 and 71.9434 and 77.311
U2OS cell growth (5 uM, time 30 h): 71.2918 and 69.1139 and 78.7744
U2OS cell growth (5 uM, time 32 h): 71.8875 and 70.974 and 76.8121
U2OS cell growth (5 uM, time 34 h): 70.5186 and 74.1959 and 71.985
U2OS cell growth (5 uM, time 36 h): 76.9133 and 76.941 and 80.0108
U2OS cell growth (5 uM, time 38 h): 71.6701 and 75.2403 and 82.922
U2OS cell growth (5 uM, time 40 h): 80.0499 and 78.8143 and 87.8843
U2OS cell growth (5 uM, time 42 h): 79.1864 and 81.7569 and 82.7144
U2OS cell growth (5 uM, time 44 h): 80.8255 and 83.4273 and 81.7035
U2OS cell growth (5 uM, time 46 h): 70.5884 and 79.7647 and 67.8016
U2OS cell growth (5 uM, time 48 h): 81.2852 and 82.2351 and 90.0725
U2OS cell growth (5 uM, time 50 h): 78.485 and 80.9296 and 75.3419
U2OS cell growth (5 uM, time 52 h): 84.8538 and 85.861 and 92.0148
U2OS cell growth (5 uM, time 54 h): 81.5977 and 83.7885 and 83.5295
U2OS cell growth (5 uM, time 56 h): 87.5569 and 89.4587 and 93.5821
U2OS cell growth (5 uM, time 58 h): 84.6921 and 91.3967 and 84.5216
U2OS cell growth (5 uM, time 60 h): 93.4537 and 91.9419 and 95.9095
U2OS cell growth (5 uM, time 62 h): 91.9546 and 93.7695 and 96.3044
U2OS cell growth (5 uM, time 64 h): 91.8004 and 92.6286 and 91.7135
U2OS cell growth (5 uM, time 66 h): 92.0972 and 95.8969 and 95.5896
U2OS cell growth (5 uM, time 68 h): 93.9858 and 97.1161 and 95.9589
U2OS cell growth (5 uM, time 70 h): 94.5074 and 95.1304 and 89.6492
U2OS cell growth (5 uM, time 72 h): 96.933 and 98.1694 and 98.6119
U2OS cell growth (10 uM, 20 h): 59.3292 and 42.3026 and 51.6083
U2OS cell growth (10 uM, 22 h): 60.1123 and 47.7603 and 56.6268
U2OS cell growth (10 uM, 24 h): 65.879 and 48.3199 and 58.8022
U2OS cell growth (10 uM, 26 h): 66.9171 and 49.8648 and 61.2924
U2OS cell growth (10 uM, 28 h): 68.6485 and 53.275 and 63.5375
U2OS cell growth (10 uM, 30 h): 71.069 and 56.4855 and 69.12
U2OS cell growth (10 uM, 32 h): 71.5144 and 55.8267 and 69.4636
U2OS cell growth (10 uM, 34 h): 74.2435 and 59.7983 and 70.8226
U2OS cell growth (10 uM, 36 h): 76.7284 and 65.4981 and 74.0155
U2OS cell growth (10 uM, 38 h): 78.9594 and 60.103 and 73.5391
U2OS cell growth (10 uM, 40 h): 82.7465 and 69.6911 and 78.5318
U2OS cell growth (10 uM, 42 h): 86.0039 and 72.043 and 81.778
U2OS cell growth (10 uM, 44 h): 87.3728 and 75.5396 and 82.7497
U2OS cell growth (10 uM, 46 h): 86.443 and 77.4006 and 83.4639
U2OS cell growth (10 uM, 48 h): 90.3014 and 79.9185 and 88.0979
U2OS cell growth (10 uM, 52 h): 93.1893 and 84.6225 and 90.2444
U2OS cell growth (10 uM, 54 h): 92.2143 and 85.5777 and 91.609
U2OS cell growth (10 uM, 56 h): 94.8388 and 87.9431 and 92.9209
U2OS cell growth (10 uM, 58 h): 95.7648 and 90.7362 and 94.7322
U2OS cell growth (10 uM, 60 h): 96.7307 and 93.0491 and 95.2722
U2OS cell growth (10 uM, 62 h): 97.3685 and 94.6473 and 95.8269
U2OS cell growth (10 uM, 66 h): 98.0655 and 94.8695 and 97.1788
U2OS cell growth (10 uM, 68 h): 98.3568 and 97.4017 and 97.5749
U2OS cell growth (10 uM, 72 h): 99.1011 and 98.8136 and 98.7281
U2OS cell growth (10 uM, time 0 h): 41.6287 and 31.6065 and 36.3749
U2OS cell growth (10 uM, time 2 h): 46.8268 and 34.9985 and 36.9548
U2OS cell growth (10 uM, time 4 h): 50.1057 and 41.3404 and 45.893
U2OS cell growth (10 uM, time 6 h): 53.6764 and 39.5271 and 46.3722
U2OS cell growth (10 uM, time 8 h): 53.6202 and 40.325 and 41.2301
U2OS cell growth (10 uM, time 22 h): 67.6831 and 51.6047 and 55.6044
U2OS cell growth (10 uM, time 24 h): 70.4619 and 52.7077 and 58.0097
U2OS cell growth (10 uM, time 26 h): 68.9698 and 56.3356 and 56.962
U2OS cell growth (10 uM, time 28 h): 67.5951 and 53.4169 and 58.8894
U2OS cell growth (10 uM, time 30 h): 68.8602 and 55.6654 and 63.1455
U2OS cell growth (10 uM, time 32 h): 68.8837 and 55.7024 and 62.8421
U2OS cell growth (10 uM, time 34 h): 67.7441 and 53.6583 and 63.4925
U2OS cell growth (10 uM, time 36 h): 73.34 and 59.5441 and 62.7355
U2OS cell growth (10 uM, time 38 h): 67.7442 and 57.3625 and 57.6257
U2OS cell growth (10 uM, time 40 h): 71.5354 and 61.3788 and 67.5692
U2OS cell growth (10 uM, time 42 h): 73.8761 and 59.0743 and 61.5168
U2OS cell growth (10 uM, time 44 h): 74.214 and 60.0999 and 63.4425
U2OS cell growth (10 uM, time 46 h): 72.8535 and 55.2649 and 60.8845
U2OS cell growth (10 uM, time 48 h): 73.5449 and 63.3501 and 68.9579
U2OS cell growth (10 uM, time 50 h): 70.9743 and 62.8458 and 61.2746
U2OS cell growth (10 uM, time 52 h): 74.6417 and 60.6048 and 69.8391
U2OS cell growth (10 uM, time 54 h): 75.3774 and 62.4224 and 65.6988
U2OS cell growth (10 uM, time 56 h): 77.5732 and 64.488 and 68.1134
U2OS cell growth (10 uM, time 58 h): 78.9517 and 67.1316 and 73.5595
U2OS cell growth (10 uM, time 60 h): 76.9315 and 70.8366 and 74.5577
U2OS cell growth (10 uM, time 62 h): 79.5315 and 69.0042 and 76.0813
U2OS cell growth (10 uM, time 64 h): 76.7502 and 71.3273 and 68.7113
U2OS cell growth (10 uM, time 66 h): 78.3996 and 67.3832 and 73.6796
U2OS cell growth (10 uM, time 68 h): 79.7849 and 73.5698 and 73.1338
U2OS cell growth (10 uM, time 70 h): 82.866 and 75.877 and 67.6073
U2OS cell growth (10 uM, time 72 h): 84.159 and 79.6503 and 78.942
